# The supplement of paper PMC3334620
# The full ranking holds about 33,000 sequences; the median of “E-score (-0.5 to 0.5)” is about -0.016, and the highest 2% start at about 0.3. Some of the results follow.
# Biological target: T1, Yer184c (UniProt P39961)
# T1 sequence: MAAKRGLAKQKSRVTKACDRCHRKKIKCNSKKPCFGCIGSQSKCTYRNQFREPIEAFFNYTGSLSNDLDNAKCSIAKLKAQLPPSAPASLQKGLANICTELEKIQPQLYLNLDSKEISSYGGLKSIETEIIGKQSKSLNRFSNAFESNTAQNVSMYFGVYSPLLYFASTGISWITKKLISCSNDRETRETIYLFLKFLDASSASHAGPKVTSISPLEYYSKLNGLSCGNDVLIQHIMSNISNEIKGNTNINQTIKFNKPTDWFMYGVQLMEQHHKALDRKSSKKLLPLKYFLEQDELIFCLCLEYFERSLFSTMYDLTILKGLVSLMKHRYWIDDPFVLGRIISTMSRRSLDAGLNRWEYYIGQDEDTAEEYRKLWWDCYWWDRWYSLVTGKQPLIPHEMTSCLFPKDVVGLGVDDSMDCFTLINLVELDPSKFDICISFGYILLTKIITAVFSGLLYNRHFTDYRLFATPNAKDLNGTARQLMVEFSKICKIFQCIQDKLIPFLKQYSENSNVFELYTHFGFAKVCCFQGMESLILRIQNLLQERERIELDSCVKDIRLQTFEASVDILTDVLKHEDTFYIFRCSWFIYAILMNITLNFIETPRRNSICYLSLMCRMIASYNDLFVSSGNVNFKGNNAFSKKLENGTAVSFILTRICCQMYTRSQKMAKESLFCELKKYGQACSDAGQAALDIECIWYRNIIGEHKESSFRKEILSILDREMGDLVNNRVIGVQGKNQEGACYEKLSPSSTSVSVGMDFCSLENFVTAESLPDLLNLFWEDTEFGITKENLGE
# Test: PBM E-score (8-mer binding enrichment) (E-score (-0.5 to 0.5)); higher = stronger / more preferred TF binding
# Settings: protein concentration: 100 nM; construct: GST-full length
# In short: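 Full-length yeast transcription factors or their DNA-binding domains, GST-tagged and expressed with PURExpress, were applied at about 100-200 nM to universal all-10-mer Agilent arrays. These arrays had been made double-stranded by primer extension on fresh or once-stripped slides. Detection used fluorescent anti-GST, normalisation used masliner, and E-scores for ungapped eight-base words pooled with reverse complements came from the Universal PBM Analysis Suite.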
row,Sequence,PBM E-score
1,AAGTCTTA,-0.158
2,GCTAACAA,0.0634
3,GGCGTGCA,-0.0643
4,GTGCATGA,-0.0788
5,CTCATCGC,-0.0826
6,CGTCGATC,0.142
7,ACCATAGA,0.0649
8,TACACACA,0.11
9,CTAACAAA,0.104
10,AACCAGTA,0.163
11,AAACTGAT,-0.0499
12,TACCCTAA,-0.085
13,GTGCAACA,-0.105
14,AGGTTTAT,0.163
15,GTGTGATA,0.142
16,CGATGTTA,0.113
17,CCTGTGCG,-0.0953
18,CAACTTAA,0.132
19,AGTAGAAA,0.196
20,CACTTACC,0.0218
21,TGCCATAA,-0.106
22,CGGGGAAA,0.15
23,GAAGTAAC,0.0995
24,GACGTTAC,-0.0321
25,GTCTGGAA,-0.179

row,Sequence,PBM E-score
1,AAGGAGCG,-0.206
2,AGGGTACC,-0.315
3,GCGACATA,0.0501
4,AATTCACC,0.144
5,GATATCCC,0.0854
6,AAGATGGC,-0.0885
7,ATGATCGA,0.031
8,CAATGTGC,0.0974
9,GATATGCA,0.0861
10,ACGGATCC,0.288
11,TGGCCAAA,-0.176
12,ACCACCTC,-0.00721
13,GGAGGGTA,-0.141
14,CCCTACAA,-0.0677
15,CGCCAGTA,-0.187
16,GATCGTAC,-0.108
17,AAGGTCCG,0.111
18,CAGTTTCC,0.133
19,GATTCGCC,0.0327
20,ACATCTCT,-0.143
21,AACATTTG,-0.0185
22,CTAGCTTC,0.156
23,AGTCGTCA,-0.257
24,GGCAAAAA,0.214
25,AAAACGCG,0.138

row,Sequence,PBM E-score
1,CCAATCTA,-0.11
2,AATCCCGC,0.115
3,AGTAAGTC,-0.215
4,GCCTGACA,-0.156
5,CTATCTAC,0.00721
6,TACCAACA,-0.0192
7,TCTGTGCA,0.0157
8,TGGAGAAA,-0.0333
9,CGGCATCC,0.253
10,AAGCAGGT,-0.127
11,ACCGGAGC,0.247
12,CGAATACG,0.127
13,CAACCTCG,0.0973
14,CTGTAAAC,-0.124
15,CGTATACC,-0.0886
16,TAGAGGGA,-0.199
17,CTTCCCTC,-0.208
18,ACCTCCCT,-0.291
19,ACGCCACA,-0.0484
20,ACTAAGAC,0.106
21,GTTCGCGA,0.311
22,GAGCCGCC,0.0613
23,CTCGTCAA,-0.132
24,CTGTCCCA,-0.156
25,AGTTATAC,0.125

# 4 entries from above, with bars between the fields.
row | Sequence | PBM E-score
13 | CAACCTCG | 0.0973
15 | CGTATACC | -0.0886
22 | GAGCCGCC | 0.0613
23 | CTCGTCAA | -0.132

# Pulled one by one from above:
row,Sequence,PBM E-score
23,GAAGTAAC,0.0995
17,CCTGTGCG,-0.0953
25,AAAACGCG,0.138
14,AGGTTTAT,0.163
24,GACGTTAC,-0.0321

# Further results.

row,Sequence,PBM E-score
1,ACCGAGAC,0.0458
2,CCTCAGCC,-0.233
3,GGTCAACC,-0.0565
4,GAGAGCAA,0.0598
5,GAATCGTA,-0.0517
6,AGCTTTAA,0.117
7,AGATTACA,0.0368
8,GCTAAACC,0.0346
9,TCGTATAA,0.19
10,CCAAAGAG,-0.0125
11,AATTTTGG,0.0485
12,AAATAACC,0.0509
13,GAGGTGAA,-0.0223
14,CCCACATC,-0.0896
15,CAACCGTG,0.0392
16,ACGAGTAC,0.0638
17,AGAGGAGG,-0.344
18,ATACGCCA,-0.0438
19,CGGCGGGA,0.24
20,AAGGAATA,0.0561
21,CACGCCCA,-0.172
22,GCATGTCA,-0.156
23,CGTCGAAA,0.161
24,GCTTCAAC,-0.0434
25,CCCTCCGG,0.1

row,Sequence,PBM E-score
1,GGCCGAAC,0.305
2,GCCCTAAC,0.111
3,AAGGACTG,0.00267
4,GTTCCCGA,0.179
5,CTCATGGC,0.00411
6,TAGCTATA,0.00093
7,AACCGCAA,0.161
8,GTCTCTAA,-0.0296
9,CCAAAGCC,-0.0564
10,CCGTCTAG,-0.00594
11,ACACAGTC,-0.101
12,CTGATGCC,0.0862
13,CTAATCAC,0.18
14,CTTTCTCC,-0.0187
15,ACTACATA,-0.0386
16,ATTGGACC,-0.154
17,CTCACCAA,-0.0127
18,ACGTGCGA,-0.0743
19,ATGGAATC,0.157
20,GCTGGCAC,-0.198
21,CAGCACCC,-0.206
22,ATTTGTCC,0.151
23,ATCAAGAG,0.0289
24,ATCCCGCC,0.0258
25,ACCACAGG,-0.253

row,Sequence,PBM E-score
1,AGATAGAT,-0.132
2,GGCTATAA,0.133
3,ATCCTTAG,-0.165
4,ATCTCACG,0.0291
5,AACCTCAT,0.105
6,GCAACAGA,0.157
7,ATGAATGG,-0.0399
8,ACGCGTAA,-0.0625
9,CGCAATTC,0.044
10,AGGCTCAA,-0.157
11,ACACGGCG,0.0813
12,CGGACCAG,0.185
13,ACCCGGAT,0.185
14,CAAAGCGC,0.0549
15,ATGTATAC,0.0697
16,CATTGATC,0.0709
17,GAACTTTA,0.0808
18,CGGGCCTA,-0.0419
19,GACGAGCC,-0.0865
20,CGGCCACA,0.194
21,GCATGCTA,-0.205
22,ACGACCCA,-0.105
23,GTATACGA,0.0948
24,AATGAACA,0.133
25,CAAAAGGC,0.0225

# At a glance, part of the list above:
row,Sequence,PBM E-score
8,ACGCGTAA,-0.0625
9,CGCAATTC,0.044
10,AGGCTCAA,-0.157

# (list continues)

row,Sequence,PBM E-score
1,CATCCGGG,0.223
2,TTAAACAA,0.0594
3,CATTTTCC,0.108
4,GGCACGCC,-0.18
5,GTTCGCCA,-0.0229
6,GCCCGCAA,0.117
7,AAAGGACT,-0.113
8,ACAGATAT,0.0496
9,AAACTAAG,0.139
10,ACGTTTCG,0.0977
11,CATCAAAA,0.133
12,GAATAGGA,0.0511
13,ATCATCAT,0.0824
14,CGGAGCAA,0.228
15,CGGATCTA,0.179
16,CTCTTACA,-0.118
17,ACTCCCGC,0.0159
18,ACACGCCA,-0.164
19,ATGTAAAC,0.0984
20,TAGAGCGA,-0.27
21,TACGAAAA,0.272
22,ACTAAAAC,0.0746
23,AGCTGTCC,-0.212
24,TACGCCTA,-0.0765
25,AGAGTTTG,0.0668

row,Sequence,PBM E-score
1,GGGTGTCA,-0.0684
2,CCCCGACC,-0.237
3,AATAATGC,0.136
4,CGGCAACA,0.271
5,CGTCACCA,-0.164
6,AAACCTGC,-0.0365
7,GCTTGCAA,0.0495
8,TAATCTCA,-0.0259
9,ACGGGCTA,-0.205
10,CTTCTGAA,0.0142
11,ACATGGCG,-0.266
12,AAGTTAAA,-0.00852
13,ATAGGTAG,-0.245
14,CCGCGACG,0.0786
15,AAAAAGAG,-0.0342
16,CGGGACGA,0.111
17,ACTTAAGC,0.0177
18,CCAGGGCC,-0.289
19,GGAATGGA,-0.0367
20,GCGAATAA,0.0477
21,AGACCGAG,0.157
22,AAGTCCAG,-0.0117
23,ACGATAAG,-0.018
24,AATTCTAC,0.174
25,CTGGGAAG,-0.145

row,Sequence,PBM E-score
1,AAAGGGCC,-0.231
2,CAAATGTC,-0.0295
3,TCATTTCA,0.103
4,CTGAGAAC,0.0807
5,ATTGGCGC,0.0309
6,GGGGTATA,-0.199
7,GGACAAAA,0.297
8,CGGCATTC,0.224
9,AGCCCACA,-0.263
10,ACATGGAC,-0.128
11,ATGCACCC,-0.147
12,CACTCGAC,-0.0695
13,CCAAAACC,0.0957
14,GTCAACAA,-0.0763
15,AGCCAGCC,-0.152
16,AAATAGTA,0.18
17,ACTGTCTG,-0.0988
18,CCGTACTC,-0.115
19,GGTCACCA,-0.188
